Source: PMC2695463

Chains of the proteins cited; added tags and fusions are not shown. Residues count along the entry.
UniProt P02769, residues 25-607: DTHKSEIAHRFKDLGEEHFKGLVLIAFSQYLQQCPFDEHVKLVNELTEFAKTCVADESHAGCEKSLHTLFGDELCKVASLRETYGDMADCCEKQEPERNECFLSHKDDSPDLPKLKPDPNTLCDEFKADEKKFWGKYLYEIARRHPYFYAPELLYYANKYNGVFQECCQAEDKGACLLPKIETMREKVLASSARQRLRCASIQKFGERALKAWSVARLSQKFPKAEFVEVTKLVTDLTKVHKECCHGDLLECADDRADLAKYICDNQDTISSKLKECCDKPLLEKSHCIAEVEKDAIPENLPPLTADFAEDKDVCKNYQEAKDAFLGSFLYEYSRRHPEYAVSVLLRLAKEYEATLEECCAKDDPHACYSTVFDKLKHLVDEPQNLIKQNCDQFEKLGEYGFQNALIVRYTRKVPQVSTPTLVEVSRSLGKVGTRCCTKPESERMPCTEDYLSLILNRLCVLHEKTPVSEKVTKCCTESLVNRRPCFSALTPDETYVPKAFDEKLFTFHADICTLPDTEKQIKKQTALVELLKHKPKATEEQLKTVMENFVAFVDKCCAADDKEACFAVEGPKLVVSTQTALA

T1: SBDS orthologue from Methanothermobacter thermautotrophicus (mthSBDS), recombinant, from plasmid pYCL02 (Methanothermobacter thermautotrophicus) (UniProt O26781)
T1 sequence: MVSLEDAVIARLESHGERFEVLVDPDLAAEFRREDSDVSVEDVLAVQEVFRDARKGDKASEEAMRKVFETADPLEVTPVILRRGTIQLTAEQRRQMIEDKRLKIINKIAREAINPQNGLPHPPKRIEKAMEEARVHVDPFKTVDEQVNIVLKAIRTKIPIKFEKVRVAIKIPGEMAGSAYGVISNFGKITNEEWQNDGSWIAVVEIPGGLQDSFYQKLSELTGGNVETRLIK

B1: Ribosomal protein L2 of M. thermautotrophicus (protein, UniProt O26113 1-241)
chain: MGKRLISQRRGRGTPTYRSASHRFKGKIKYRAYDSIESEGSLKGKVVDIMHDPGRTAPVARVKFENGEERLILAPEALMLNEEVECGVKARVKPGNSLPLSEIPEGTPIYNIENRPGDGGKLVRSSGTYASLITHDADKAVIELPSGELKALNPQCRATVGVVAGGGRREKPFLKAGKKYHALRAKGKKSVTVRGVAMNAVDHPHGGGNRQHPGRPTTVSRHAPPGRKVGSIAARRTGKRR
B2: Ribosomal protein L14 of M. thermautotrophicus (protein, UniProt O26121 1-132)
chain: MKAIASKVTRALPVGARLQCVDNTGAREVEIISVRGYKGVRRRLAAAGVGDMVVVSVKKGTVDMRREVLNAVIVRQKKEYRRPDGLRVKFEDNAAVIVSPEGVLKGSEIRGPVAKEAADRWPSVGSAASIIV
B3: Ribosomal protein L1 of M. thermautotrophicus (protein, UniProt O27716 1-212)
chain: MQQEIMEAVKKAKELSRPRNFTQSMDVILNIKDLDVNKPENRFDEEVSLPNGRGKDVKIAVIADGELALQAKNAGADLVITKDELEELGKNRKEAKKLANQYEFFVAQADMMPLVGRFMGPVLGPRKKMPKPVPATINPEPILNKLRDTVKVRIKDQPVVHTVVGTEDMDDEKLAENIEAVLQTIDRKLEKGRNQLKSMYVKTTMGPVVRVI

These binders were tested against T1, SBDS orthologue from Methanothermobacter thermautotrophicus (mthSBDS), recombinant, from plasmid pYCL02 (Methanothermobacter thermautotrophicus) (assay: affinity purification with mass spectrometry; 3 mg mthSBDS (control: 3 mg BSA) covalently coupled to a 1 ml NHS-activated column; M. thermautotrophicus lysate digested with RNase A and DNase I loaded; eluted with 100 mM glycine-HCl pH 2; SDS-PAGE, silver staining, bands excised, trypsin, MALDI-TOF/TOF, MASCOT; only the target purified).

binding, binds:
B1
B2
B3

Each binder was assayed against BSA (UniProt P02769) in the same assay as above.

binding, no binding:
B1
B2
B3

These are yes or no findings as the source states them, for the method shown. Binding seen in cells or lysates may run through a third protein. Here binding means that the protein was enriched with, or labelled near, the bait; the list need not be complete. For part of these data: A no says only that the protein was not detected with the bait.
